According to patent publication US7126027B2, “N-[(1-dimethylaminocycloalkyl)methyl]benzamide derivatives” (Akzo Nobel N.V., priority 2002, dated 2006):
At least one structure is not confirmed: it was looked up by name or label, or the drawing left a doubt.

Tested on: rats
Test: Chung model of neuropathy (L5 spinal nerve ligation, von Frey withdrawal threshold)
Design: species or system rat
Details: Chung in vivo model of neuropathy

## COc1cc(C(=O)NCC2(N(C)C)CCCC2)cc(OC)c1OCc1ccccc1 [Example 2, 4-Benzyloxy-3,5-dimethoxy-N-[1-(dimethylaminocyclopentyl)methyl]benzamide]
  mechanical allodynia: reduce the mechanical allodynia
